# Results as given in article PMC7819943, “Rice protein-binding microarrays: a tool to detect cis-acting elements near promoter regions in rice”.
# Amino acid sequences for entries named in this document (tags omitted).
# UniProt Q0JBA9, entry or part of it: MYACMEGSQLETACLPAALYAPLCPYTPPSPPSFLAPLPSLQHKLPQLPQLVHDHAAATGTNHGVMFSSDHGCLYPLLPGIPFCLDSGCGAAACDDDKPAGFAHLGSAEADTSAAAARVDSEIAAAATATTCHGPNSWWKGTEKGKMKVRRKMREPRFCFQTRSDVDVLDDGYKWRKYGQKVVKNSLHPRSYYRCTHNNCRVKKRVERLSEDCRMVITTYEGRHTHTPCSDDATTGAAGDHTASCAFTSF
# Some of the results follow.
# Target: OsWRKY34 (Oryza sativa, UniProt Q0JBA9 1-250)
# Assay: protein-binding microarray (RPBM); PBS, 2% BSA, 51.3 ng/ul salmon testes DNA, 50 uM zinc acetate, 200 nM TF, 25 C, 1 h; high values mean tight binding
# Conditions: protein: recombinant; tags: N-terminal polyhistidine and DsRed monomer fusion (pET32a); label: CyDye5-dUTP incorporated in the synthesized complementary strand; 3' TTTTT single-stranded linker to array surface; dsDNA, one strand shown
# Outline: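 Transcription factors were made in E. coli BL21-CodonPlus as N-terminal fusions to a polyhistidine tag and DsRed, then purified on Ni–NTA. After primer extension with Cy5-dUTP and blocking with 2% BSA, a custom Agilent array was exposed for 1 h at 25 °C to 200 nM protein in PBS, 2% BSA, salmon testes DNA and 50 µM zinc acetate. Washed arrays were scanned on an Axon 4000B, and the binding signal is per-feature fluorescence intensity in arbitrary units.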
row,Sequence,binding signal
1,TTTTTGTACAAGCTGGTATTATTTTCATTGGGTTGCTAGGCGGAGTCACCTAGTGCAG,8480 fluorescence intensity (a.u.)
2,TTTGCCAAGTATAAGAAGGTCTTGCCACATGCAGGTTCTCCGGAGTCACCTAGTGCAG,9350 fluorescence intensity (a.u.)
3,TGCCGTTTCTTTGGTCTCATCCTCCGCTAGCAGCAAAGCCCGGAGTCACCTAGTGCAG,8160 fluorescence intensity (a.u.)
4,GATGTGGCATCTCAACTGGGCTACAGTAGCATCGACTCAGCGGAGTCACCTAGTGCAG,8290 fluorescence intensity (a.u.)
5,GCTGTTAATTGTATACCCCACTTGGCCGCTATCTTTGACACGGAGTCACCTAGTGCAG,10200 fluorescence intensity (a.u.)
6,ATGTCCAATATCTCTTGTCCTCTATCTGGCTTCTGACATCCGGAGTCACCTAGTGCAG,10800 fluorescence intensity (a.u.)
7,TCTTCTTCTCTGTGTATCCCTTGTTCTTTTGATATTTTGACGGAGTCACCTAGTGCAG,12500 fluorescence intensity (a.u.)
8,CTCTGGTCACGATACTCCCGGTCCCATATCACCGACACCGCGGAGTCACCTAGTGCAG,8110 fluorescence intensity (a.u.)
9,CCGATCTCTCTCACTCTCCACCCACACCTCCACTCCACTCCGGAGTCACCTAGTGCAG,8870 fluorescence intensity (a.u.)
10,CGAGTACTCAGCCTTTTTACATGCATGCGATTTTTTTTCTCGGAGTCACCTAGTGCAG,8620 fluorescence intensity (a.u.)
11,CACACTCCCATCCATTCTCCTCTCCTTTCCTCTCCTCTCCCGGAGTCACCTAGTGCAG,8050 fluorescence intensity (a.u.)
12,GACTTTTTAAGTATATGTTTGACCGTTCGTCTTATTCAAACGGAGTCACCTAGTGCAG,9530 fluorescence intensity (a.u.)
13,TCCTACGTGGATAAACTTGTTTTTTTGCTTTTGTGCGACGCGGAGTCACCTAGTGCAG,9490 fluorescence intensity (a.u.)
14,TGGATCTCGCCGCCGCCTTCCACCAACCCTCGCCGGACAACGGAGTCACCTAGTGCAG,8730 fluorescence intensity (a.u.)
15,TTAGCCTCGTACGTTGTCTCGGGCAATTTGTTTCCCTCCGCGGAGTCACCTAGTGCAG,8530 fluorescence intensity (a.u.)
16,TCTTGTCGTCCTCACCGCCATCTGTGCGCCCATACAACTACGGAGTCACCTAGTGCAG,10600 fluorescence intensity (a.u.)
17,ACAACACGGCAAATTCTCAATACATATTATAGCATACTCTCGGAGTCACCTAGTGCAG,9110 fluorescence intensity (a.u.)
18,ATTTCATTTTTTTCCCTCTATTCTTAGTTCTTCTCTGTTCCGGAGTCACCTAGTGCAG,8360 fluorescence intensity (a.u.)
19,GGATCAATTAATGGAAGCATGAATAATGCATTTTCTCTCCCGGAGTCACCTAGTGCAG,8240 fluorescence intensity (a.u.)
20,ATCCCGTTCCGGCCCAACTTCGTCTTTTCGGCCCAATGGGCGGAGTCACCTAGTGCAG,8700 fluorescence intensity (a.u.)
21,CAGTGCCGATAAAATTTGTTATTTTTGTTTCTTCATATATCGGAGTCACCTAGTGCAG,10900 fluorescence intensity (a.u.)

# In another format: entries from further up
row	Sequence	binding signal
9	CCGATCTCTCTCACTCTCCACCCACACCTCCACTCCACTCCGGAGTCACCTAGTGCAG	8870 fluorescence intensity (a.u.)
10	CGAGTACTCAGCCTTTTTACATGCATGCGATTTTTTTTCTCGGAGTCACCTAGTGCAG	8620 fluorescence intensity (a.u.)
11	CACACTCCCATCCATTCTCCTCTCCTTTCCTCTCCTCTCCCGGAGTCACCTAGTGCAG	8050 fluorescence intensity (a.u.)
12	GACTTTTTAAGTATATGTTTGACCGTTCGTCTTATTCAAACGGAGTCACCTAGTGCAG	9530 fluorescence intensity (a.u.)
13	TCCTACGTGGATAAACTTGTTTTTTTGCTTTTGTGCGACGCGGAGTCACCTAGTGCAG	9490 fluorescence intensity (a.u.)

# Following part

row,Sequence,binding signal
1,TCCAATCCAGCCCGTCCACTCCCACACCAACGGTCGCGATCGGAGTCACCTAGTGCAG,8410 fluorescence intensity (a.u.)
2,ATGGTTCTCGATATCTTCCTCTCTCCATTCCACCGATTAACGGAGTCACCTAGTGCAG,9480 fluorescence intensity (a.u.)
3,CTTTTTTGACAGTCATCTTCAGTTTTTTTTTTTTGTTTAACGGAGTCACCTAGTGCAG,12500 fluorescence intensity (a.u.)
4,GTAACTACAGCCATATTCTTTTGATTTTATTTACCGGATTCGGAGTCACCTAGTGCAG,9050 fluorescence intensity (a.u.)
5,AAGCTCTTCTACGGCAATGCATTTTTTTATGCCACATATGCGGAGTCACCTAGTGCAG,9820 fluorescence intensity (a.u.)
6,GATCTTACATCGTTAGCATGCTTTTTAAACTGTTTAACGACGGAGTCACCTAGTGCAG,9250 fluorescence intensity (a.u.)
7,ATGTTTTTGTTTTTGCCATAAGATGTTGTGATCTAACTCCCGGAGTCACCTAGTGCAG,9410 fluorescence intensity (a.u.)
8,CTCTTCAGTCAGTTCGGTGTCATGGCACTAGCCGCTACTACGGAGTCACCTAGTGCAG,8240 fluorescence intensity (a.u.)
9,TCTGACTAAAAACCGTTCAACTGCGCTCCTATTTACTGCTCGGAGTCACCTAGTGCAG,8490 fluorescence intensity (a.u.)
10,TCCTCTGATCGGCCTCTCTCGCACATTGCTTAATTAGCTACGGAGTCACCTAGTGCAG,10800 fluorescence intensity (a.u.)
11,GCAATTTTTTTCAGAGCGTGTACATTCCCGTGTTTGTCTGCGGAGTCACCTAGTGCAG,12100 fluorescence intensity (a.u.)
12,CTCAGCTTTGTCCACACCTGTTTCTCAACATTTTTCTATGCGGAGTCACCTAGTGCAG,9610 fluorescence intensity (a.u.)
13,TCTCGTAGTTGTATATTACTACCAGTCGTATGGTTATATCCGGAGTCACCTAGTGCAG,8330 fluorescence intensity (a.u.)
14,ATTTTGATGATATGTGAACTTGGTTTTTGGTTTGGCCACGCGGAGTCACCTAGTGCAG,8720 fluorescence intensity (a.u.)
15,CCTCCGCTTCATATTATAAGTTGTTTGATTTTTTTCCTAACGGAGTCACCTAGTGCAG,11300 fluorescence intensity (a.u.)
16,TGGATAATGTTGGATAACGGGAAATGAGGGGTGGGATTAACGGAGTCACCTAGTGCAG,10000 fluorescence intensity (a.u.)
17,GACTTTCTTATTTTATTTTTCTAACTTTATTTTTTATTTTCGGAGTCACCTAGTGCAG,10200 fluorescence intensity (a.u.)
18,CCACCAGCCCGTGCAATCAGTGGCACTGTAAATTTTTGCTCGGAGTCACCTAGTGCAG,8180 fluorescence intensity (a.u.)
19,TATTTGGTTCCATTTGCTAATGTTTAGCCCTCACCTTTTACGGAGTCACCTAGTGCAG,12700 fluorescence intensity (a.u.)
20,TTTGCAAGTCATTGTTATCTTCATCTTCCACCTCCAAAACCGGAGTCACCTAGTGCAG,11000 fluorescence intensity (a.u.)
21,TCGGTTTGTTTTTTTCCGGTTTATCTTCTTTCGGTTTTTTCGGAGTCACCTAGTGCAG,18500 fluorescence intensity (a.u.)

row,Sequence,binding signal
1,GTGTTCGGATGCCATTTTTCTCATCTCATCTCTCTCGTTTCGGAGTCACCTAGTGCAG,9400 fluorescence intensity (a.u.)
2,TAATGTCATCTTCCCGTAGATTCTCACTCTTCAAGTCTCACGGAGTCACCTAGTGCAG,10000 fluorescence intensity (a.u.)
3,AGACGTGTGATTATATGCTTTTGTATTTGTTTTTTTTATCCGGAGTCACCTAGTGCAG,12600 fluorescence intensity (a.u.)
4,AATGGTGCAATACAATTTCAAGCGTATCACTGTTGTTCCTCGGAGTCACCTAGTGCAG,9720 fluorescence intensity (a.u.)
5,TGGTCCTTAGCCTAGCTCATTGGTTGATCCTCCAATACCGCGGAGTCACCTAGTGCAG,8340 fluorescence intensity (a.u.)
6,CTGCACCACCGCTTTTTAGGCCCTCCTCCGTGTTGTCCGACGGAGTCACCTAGTGCAG,8820 fluorescence intensity (a.u.)
7,CCCATGTTGTTCCGCGGACTTCTCGCTTGGGCTGTCGGGTCGGAGTCACCTAGTGCAG,8310 fluorescence intensity (a.u.)
8,ATGTAATTCTGACTATTTTGTTTTTTAACCCAAGCGAATTCGGAGTCACCTAGTGCAG,8580 fluorescence intensity (a.u.)
9,CATGCCTTACGGTTTTTCTTTTTTTTTTTCCCGGAATTGCCGGAGTCACCTAGTGCAG,9060 fluorescence intensity (a.u.)
10,CGAGACTAGGTAGCAAATATCATTTTCCGTTTAATTTCACCGGAGTCACCTAGTGCAG,10800 fluorescence intensity (a.u.)
11,TATTTTTGGGTTGGGTTTGGGTTGGGTTGGGTCGAGTTGGCGGAGTCACCTAGTGCAG,26100 fluorescence intensity (a.u.)
12,ACGTATATTATCATTATGTTTTTTTCACCCGTTGCAAACACGGAGTCACCTAGTGCAG,11100 fluorescence intensity (a.u.)
13,TGGGTTTCTCAGCTTCTGGCTTCTAGTTCATTTTCTGGATCGGAGTCACCTAGTGCAG,10600 fluorescence intensity (a.u.)
14,GGGTGGCAGTGGCGCCGAGGACGCACGCCACGTGTTTGACCGGAGTCACCTAGTGCAG,8510 fluorescence intensity (a.u.)
15,CCAATTGTTTTCCTCTCTGTGTGTTTTGCTCATGTTTTGTCGGAGTCACCTAGTGCAG,16000 fluorescence intensity (a.u.)
16,GCACCGTAGCAACTACTCCAGCAACTGTGTTTTCAATTCTCGGAGTCACCTAGTGCAG,11300 fluorescence intensity (a.u.)
17,TTTTTTTGTGCAGTTTTTTCTCCTTTTTGATTTTGATTTTCGGAGTCACCTAGTGCAG,9480 fluorescence intensity (a.u.)
18,TCACCCCGCCGCCGCCATCCAGGCGCCGACGACCTCCCATCGGAGTCACCTAGTGCAG,8840 fluorescence intensity (a.u.)
19,GCAGATGCAGTCACATGTTCTTTTCTCTCTCATCACCATGCGGAGTCACCTAGTGCAG,8780 fluorescence intensity (a.u.)
20,TGTGGGATGGATTTGTGGTGATTGAGAGGGTTTGAAAGGGCGGAGTCACCTAGTGCAG,9590 fluorescence intensity (a.u.)
21,ACATGTCAGCTCTCTCTCACTCACTCTTCTTATCTCAATCCGGAGTCACCTAGTGCAG,13100 fluorescence intensity (a.u.)

row,Sequence,binding signal
1,CTGGTTTTTCGCGCGCACGCTTTTCAAACTGCTAAACGGTCGGAGTCACCTAGTGCAG,8930 fluorescence intensity (a.u.)
2,CATCGCATTTCTTCCAACAGATTTGATGACTCCTTTTTACCGGAGTCACCTAGTGCAG,9690 fluorescence intensity (a.u.)
3,CGGTCCACCCTGAACTCCACGGTCCCACACCTCACCCAGTCGGAGTCACCTAGTGCAG,9320 fluorescence intensity (a.u.)
4,ACCCACATGGGTCCCACATGTCATCCTCACTCCTCATTTCCGGAGTCACCTAGTGCAG,12700 fluorescence intensity (a.u.)
5,CTGTCAAATTTTGTTCCTCATATACTCTGCCATCCATTGCCGGAGTCACCTAGTGCAG,8200 fluorescence intensity (a.u.)
6,TGGGCTGGCTGCTAAGATGACTTTTCTACTCCAGCCATGTCGGAGTCACCTAGTGCAG,8450 fluorescence intensity (a.u.)
7,ATTTATAGGTTTTGCACGTGTTGTCCAAATGTGATCCTTTCGGAGTCACCTAGTGCAG,8100 fluorescence intensity (a.u.)
8,CGCCGCCGCTCCCGCCACCGCCACATCCCTTGCCGGTGATCGGAGTCACCTAGTGCAG,9700 fluorescence intensity (a.u.)
9,TGCGGATGGGATGGAGAGCGCAGGAGGGGTGGGTTGTTGTCGGAGTCACCTAGTGCAG,10800 fluorescence intensity (a.u.)
10,GCTACAGGACCACATCGCCAGCGGCCACCTCTCCCGCGCTCGGAGTCACCTAGTGCAG,8740 fluorescence intensity (a.u.)
11,ATTAGTCACACGCACTCACACCAACATTCACACAAACTCTCGGAGTCACCTAGTGCAG,8170 fluorescence intensity (a.u.)
12,ACGCTCCACTCCCGTGATCATCACCTCCTTCCCTTTCCAGCGGAGTCACCTAGTGCAG,8430 fluorescence intensity (a.u.)
13,GTTTATCCGTGGGTAAAAACCCTATTAGGGTTGGGTTTGTCGGAGTCACCTAGTGCAG,9890 fluorescence intensity (a.u.)
14,AGCAGTTAACCCACCGTACAACAAAATCAATCAGTTTCTTCGGAGTCACCTAGTGCAG,8270 fluorescence intensity (a.u.)
15,AGCACCGGTGGCAGCGGCGGACCGTGGAGGGAGGGAGGGGCGGAGTCACCTAGTGCAG,9770 fluorescence intensity (a.u.)
16,GGCTGGTTTGACCGCACATATACCGCCGGTTTGACCAACTCGGAGTCACCTAGTGCAG,10600 fluorescence intensity (a.u.)
17,GTCACTCGCACCCAGCTTGCTCGCTCGCTTGATCGACACACGGAGTCACCTAGTGCAG,8160 fluorescence intensity (a.u.)
18,TTGTTGTAATTATGTCATCGGTTTGTATTTAGTACCATATCGGAGTCACCTAGTGCAG,8050 fluorescence intensity (a.u.)
19,CGACATTGCTCCATCTCTCCTTCACGGGCCAACATGTACACGGAGTCACCTAGTGCAG,9250 fluorescence intensity (a.u.)
20,CATCATCACATCCAAAACTTTTATACACACGTAAACTTTCCGGAGTCACCTAGTGCAG,10300 fluorescence intensity (a.u.)
21,GGTACGCATTTCAACTTACTACTGTATCTGTATAACTTACCGGAGTCACCTAGTGCAG,9010 fluorescence intensity (a.u.)
